This passage reports binding results from US20250270306A1 (OSPEDALE SAN RAFFAELE S R L, published 2025).

Amino acid sequences for entries named in this document (tags omitted). Residues count along the entry.
UniProt P17936, residues 28-291: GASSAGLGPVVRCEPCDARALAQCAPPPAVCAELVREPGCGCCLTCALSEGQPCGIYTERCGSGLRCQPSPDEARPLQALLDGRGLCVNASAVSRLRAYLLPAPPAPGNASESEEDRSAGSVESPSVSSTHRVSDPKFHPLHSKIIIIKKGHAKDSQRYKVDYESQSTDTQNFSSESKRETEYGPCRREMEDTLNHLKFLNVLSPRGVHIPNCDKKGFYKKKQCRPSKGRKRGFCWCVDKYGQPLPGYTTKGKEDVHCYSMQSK

Results are given in words; binding and its absence hold for the method and conditions named. Some entries that bind do so weakly or less than the wild type.

For test [1], the target named is T1, Recombinant human IGFBP3 (human, UniProt P17936 28-291). The test can be described thus: sandwich ELISA: plate coated with LSBio LS-C45037 anti-IGFBP3 mAb; premix of IGFBP3 and ecto-TMEM219 1:1 added; bound ecto-TMEM219 detected through its His tag. A general note: ELISA stands for enzyme-linked immunosorbent assay.
Test [2] concerns the target T1, Recombinant human IGFBP3. The test can be described thus: ELISA: plate coated with rhIGFBP3 4 µg/ml; ecto-TMEM219 10 µg/ml; detection anti-HisTag HRP.

B1: ecto-TMEM219 (receptor)
chain: THRTGLRSPDIPQDWVSFLRSFGQLTLCPRNGTVTGKWRGSHVVGLLTTLNFGDGPDRNKTRTFQATVLGSQMGLKGSSAGQLVLITARVTTERTAGTCLYFSAVPGILPSSQPPISCSEEGAGNATLSPRMGEECVSVWSHEGLVLTKLLTSEELALCGSR
notes: it is put last here only for want of better knowledge; also called EctoTMEM-His; extracellular domain of TMEM219; not shown: His tag (detected with anti 6xHis tag HRP)
Consider B1, for which the binding result in test [1] and in test [2] was “binds” throughout.
